Data source: PubChem BioAssay AID1259405 (NCATS, 2018)
Purpose: 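Knock-downs that lift recombinant protein yield in hamster ovary cells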 (primary screen). Cell system: Chinese hamster CHO-K1 ovary cells with stable secreted eGFP expression. Reagent: single siRNA against mouse genes, 0.8 pmol siRNA per well (2 µl of 400 nM stock). Time to read-out: 3 days. Measured: 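Per-well intracellular GFP measured by laser scanning cytometry, plus viability from ATP luminescence, each relative to plate median of non-targeting control wells, in %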. Direction: GFP, % of control: higher = more GFP per well, higher productivity; viability (ATP), % of control: higher = more viable cells (more ATP). Rule for the call: 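Called active when intracellular GFP, relative to negative control, is at or above 120%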.
This is a random part of about 50,000 reagents tested. Of all reagents, about 4,000 (8%) are marked active. 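Mouse siRNA library applied to hamster cells; one well for each siRNA.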 A number with no mark means an inactive call. Reagents against one gene are numbered here.

target gene,reagent,"GFP, % of control","viability (ATP), % of control"
Cebpe,1,57.5,60.7
Cebpe,2,89.5,43.7
Cebpe,3,125 (active),110
Tas2r129,1,58.8,64.9
Tas2r129,2,140 (active),95.1
Tas2r129,3,61.2,86.2
Galnt6,1,92.4,93.8
Galnt6,2,73.3,107
Galnt6,3,85,108
Adamts18,1,103,44.5
Adamts18,2,68.1,81.2
Adamts18,3,87.1,82.7
Mpc1,1,77.6,74.8
Mpc1,2,71.2,76.5
Mpc1,3,95.4,148
Cdca2,1,61.5,78.6
Cdca2,2,102,88.9
Cdca2,3,82.7,82.5
Psmf1,1,37.1,66.8
Psmf1,2,83.3,72.5
Psmf1,3,91.6,82.9
Hapln4,1,126 (active),32.9
Hapln4,2,70.8,81.9
Hapln4,3,76.9,54.8
Vamp2,1,91.8,84.9
Vamp2,2,111,123
Vamp2,3,87.9,73.3
Casd1,1,108,111
Casd1,2,94.6,82

Next part, starting with the last 2 of the part before.
target gene,reagent,"GFP, % of control","viability (ATP), % of control"
Casd1,1,108,111
Casd1,2,94.6,82
Siglece,1,73.5,59.9
Siglece,2,106,94
Fmo1,1,105,81.3
Fmo1,2,76,76.7
Fmo1,3,87.4,93.1
Hao2,1,87.8,107
Hao2,2,34.8,93.6
Hao2,3,61.4,72.7
Alx4,1,99.8,119
Alx4,2,102,105
Alx4,3,42.6,58.8
Dym,1,98.5,122
Dym,2,60.6,80.2
Dym,3,72.8,73.5
Mettl21a,1,67.5,77.9
Mettl21a,2,50.9,64.3
Mettl21a,3,55.9,61.6
Cox20,1,67,71.5
Cox20,2,28.4,42.7
Cox20,3,67,67.5
Areg,1,134 (active),101
Areg,2,51.6,62.4
Glb1,1,91.4,74.7
Glb1,2,77.7,76.3
Glb1,3,93.4,113
Ahsg,1,213 (active),79.6
Ahsg,2,61.4,58.6
Ahsg,3,98.9,65.5
